Measured values from US6528284.
Results are given in words; binding and its absence hold for the method and conditions named. Some binding calls cover weakened binding; strength is not graded here.

By UniProt entry, the sequences of proteins in these tests, tags left out. Where a name states a change or a piece, a line headed by the entry shows the natural chain unless it says otherwise. Residues count along the entry.
UniProt P11103, residues 2-1013: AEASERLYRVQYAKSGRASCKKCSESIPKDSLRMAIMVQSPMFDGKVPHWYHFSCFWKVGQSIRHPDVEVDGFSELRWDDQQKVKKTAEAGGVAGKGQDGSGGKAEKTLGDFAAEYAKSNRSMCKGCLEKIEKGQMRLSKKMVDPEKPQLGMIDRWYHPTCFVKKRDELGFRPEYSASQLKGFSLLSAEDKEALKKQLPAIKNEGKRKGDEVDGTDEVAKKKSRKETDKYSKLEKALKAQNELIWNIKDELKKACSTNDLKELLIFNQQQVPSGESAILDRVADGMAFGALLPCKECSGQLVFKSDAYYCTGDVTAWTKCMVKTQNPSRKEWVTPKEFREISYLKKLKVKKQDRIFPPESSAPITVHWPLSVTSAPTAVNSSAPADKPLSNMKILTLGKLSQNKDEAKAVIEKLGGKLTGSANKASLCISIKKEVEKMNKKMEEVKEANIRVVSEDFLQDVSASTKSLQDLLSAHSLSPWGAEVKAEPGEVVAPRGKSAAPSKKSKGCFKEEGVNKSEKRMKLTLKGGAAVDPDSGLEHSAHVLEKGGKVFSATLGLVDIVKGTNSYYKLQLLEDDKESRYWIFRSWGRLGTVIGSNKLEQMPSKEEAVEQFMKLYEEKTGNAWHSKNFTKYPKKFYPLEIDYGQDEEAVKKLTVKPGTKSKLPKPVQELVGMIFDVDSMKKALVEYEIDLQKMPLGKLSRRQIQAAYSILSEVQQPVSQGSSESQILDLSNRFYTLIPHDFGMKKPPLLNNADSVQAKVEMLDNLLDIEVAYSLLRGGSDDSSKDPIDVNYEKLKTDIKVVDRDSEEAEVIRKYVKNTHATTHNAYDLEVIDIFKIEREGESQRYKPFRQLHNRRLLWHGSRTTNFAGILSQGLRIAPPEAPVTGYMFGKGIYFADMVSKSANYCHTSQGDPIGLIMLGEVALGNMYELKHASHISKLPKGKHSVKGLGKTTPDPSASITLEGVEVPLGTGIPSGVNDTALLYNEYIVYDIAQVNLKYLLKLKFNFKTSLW
UniProt Q61937: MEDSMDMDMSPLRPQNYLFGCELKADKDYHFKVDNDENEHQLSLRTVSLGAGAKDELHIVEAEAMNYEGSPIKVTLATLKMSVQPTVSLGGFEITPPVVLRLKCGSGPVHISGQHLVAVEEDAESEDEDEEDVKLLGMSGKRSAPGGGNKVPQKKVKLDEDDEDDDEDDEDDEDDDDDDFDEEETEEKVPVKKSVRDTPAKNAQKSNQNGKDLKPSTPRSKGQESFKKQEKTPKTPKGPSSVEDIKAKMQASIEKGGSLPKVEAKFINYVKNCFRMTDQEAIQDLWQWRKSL
UniProt Q6A028: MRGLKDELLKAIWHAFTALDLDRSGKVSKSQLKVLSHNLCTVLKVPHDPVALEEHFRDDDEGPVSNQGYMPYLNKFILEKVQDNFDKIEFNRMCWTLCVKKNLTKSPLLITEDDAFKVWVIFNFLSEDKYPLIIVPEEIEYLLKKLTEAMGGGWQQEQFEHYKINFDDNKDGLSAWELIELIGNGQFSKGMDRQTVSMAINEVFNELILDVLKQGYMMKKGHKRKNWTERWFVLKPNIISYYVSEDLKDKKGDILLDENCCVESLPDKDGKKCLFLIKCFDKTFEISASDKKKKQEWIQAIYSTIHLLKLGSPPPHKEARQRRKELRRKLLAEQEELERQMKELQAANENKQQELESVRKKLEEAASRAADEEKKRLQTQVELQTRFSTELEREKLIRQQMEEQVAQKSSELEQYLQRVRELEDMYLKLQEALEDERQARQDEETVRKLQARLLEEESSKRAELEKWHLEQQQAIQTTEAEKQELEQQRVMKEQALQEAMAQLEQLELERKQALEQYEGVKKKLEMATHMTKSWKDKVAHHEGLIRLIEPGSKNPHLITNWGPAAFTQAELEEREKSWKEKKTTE

Experiments:
[1] = biological target: poly(ADP-ribose) polymerase (PARP), native protein from nuclear extract of switching B cells (UniProt P11103); test: SRTA-70 affinity column, eluted fractions probed in Western blot with anti PARP antibody
[2] = biological target: B23 (nucleophosmin), native protein from nuclear extract of switching B cells (UniProt Q61937); test: affinity chromatography: His-SRTA-70 on sepharose beads, nuclear extract from switching B cells, ammonium sulfate step elution, Western blot
[3] = biological target: poly(ADP-ribose) polymerase (PARP), native protein from nuclear extract of switching B cells (UniProt P11103); test: as above
[4] = biological target: B23 (nucleophosmin), native protein from nuclear extract of switching B cells (UniProt Q61937); test: SRTA-70 affinity column, eluted fractions probed in Western blot with anti B23 antibody

Measured: binding

His-tagged SRTA-70 (recombinant, expressed in E. coli from pQE-30, bound to sepharose beads) (from UniProt Q6A028 1-585)
binds: all assays above
